From article PMC3651169
These are yes or no findings as the source states them, for the method shown. In cells and extracts the contact can be indirect. Some binding calls cover weakened binding; strength is not graded here.

Amino acid sequences for entries named in this document (tags omitted).
UniProt Q9QUR7: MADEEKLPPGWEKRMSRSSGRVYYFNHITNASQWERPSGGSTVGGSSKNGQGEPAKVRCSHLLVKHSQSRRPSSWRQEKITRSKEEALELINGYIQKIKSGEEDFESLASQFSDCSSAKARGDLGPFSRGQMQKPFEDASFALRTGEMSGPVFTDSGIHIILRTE
UniProt P97454: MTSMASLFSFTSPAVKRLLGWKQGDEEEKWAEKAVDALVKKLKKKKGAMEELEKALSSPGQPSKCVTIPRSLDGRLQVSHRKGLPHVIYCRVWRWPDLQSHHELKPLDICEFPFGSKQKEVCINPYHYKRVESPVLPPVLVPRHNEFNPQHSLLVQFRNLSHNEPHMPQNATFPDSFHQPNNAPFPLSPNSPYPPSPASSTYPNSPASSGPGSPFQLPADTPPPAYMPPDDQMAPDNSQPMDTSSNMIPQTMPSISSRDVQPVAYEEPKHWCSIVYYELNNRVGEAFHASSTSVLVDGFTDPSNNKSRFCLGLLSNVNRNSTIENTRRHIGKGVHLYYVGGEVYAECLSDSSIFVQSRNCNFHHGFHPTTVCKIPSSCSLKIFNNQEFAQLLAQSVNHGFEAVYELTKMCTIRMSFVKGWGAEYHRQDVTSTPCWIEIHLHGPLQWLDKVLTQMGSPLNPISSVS

What was measured:
[1] = molecular target: peptidyl-prolyl isomerase PIN1 (mouse (endogenous in bone marrow derived and primary calvarial osteoblasts)) (UniProt Q9QUR7); assay: co-IP; differentiated primary calvarial osteoblasts treated with BMP2 for 60 min; immunoprecipitation with anti-PIN1 and immunoblot
[2] = molecular target: peptidyl-prolyl isomerase PIN1 (mouse (endogenous in bone marrow derived and primary calvarial osteoblasts)) (UniProt Q9QUR7); assay: co-IP; bone marrow cells treated with BMP2 (200 ng/ml) for 10 days; lysis in NP-40 buffer (1% Triton-X 100, 0.5% NP-40, 150 mM NaCl, 10 mM Tris pH 7.4, 1 mM EDTA, 1 mM EGTA); immunoprecipitation with anti-PIN1, protein G-agarose, 4°C; immunoblot
[3] = molecular target: peptidyl-prolyl isomerase PIN1 (mouse (endogenous in bone marrow derived and primary calvarial osteoblasts)) (UniProt Q9QUR7); assay: co-IP; differentiated primary calvarial osteoblasts, untreated (no BMP2); immunoprecipitation with anti-PIN1 and immunoblot

binding [1]: binds
binding [2]: binds
binding [3]: binds weakly
Substance: SMAD5 (from UniProt P97454 1-465)
